Data published in US12209143B2, “Versatile peptide and protein macrocyclization and multimerization with diels-alder cycloadditions” (The University of Chicago, priority 2019, dated 2025).
At least one peptide structure holds a part that was inferred or is arguable (an end, a ring closure or a residue).

How the values were obtained:
[1] = test system: HeLa cells; test: Scratch wound (cell migration) assay; type: cell-based; settings: 10 and 20 μM, 16 hr, relative to linear control peptide 1 wt
[2] = DAC peptide cycloadduct chemical stability assay with βME; type: physicochemical; settings: βME 20 eq, PBS pH 8.0, 37° C., up to 24 hr

## CC(=O)N[C@H]1CSCC2C=CC(C)C3C(=O)N(CC(=O)NCCCC[C@@H](C(N)=O)NC(=O)[C@H](CC(=O)O)NC(=O)CNC(=O)[C@H](CCCNC(=N)N)NC1=O)C(=O)C23 (some centres unmarked) [1a, CHexRGDKMal]
[1]
  blocking wound closure: significantly more effective at blocking wound closure
[2]
  βME addition product on prolonged exposure: did not result in any addition product
